Measured values taken from article PMC2931690.
These are yes or no findings as the source states them, for the method shown. In cells and extracts the contact can be indirect. Some binding calls cover weakened binding; strength is not graded here.

Protein sequences, listed by entry. Tags and fused reporters are not part of them.
UniProt Q3UND0: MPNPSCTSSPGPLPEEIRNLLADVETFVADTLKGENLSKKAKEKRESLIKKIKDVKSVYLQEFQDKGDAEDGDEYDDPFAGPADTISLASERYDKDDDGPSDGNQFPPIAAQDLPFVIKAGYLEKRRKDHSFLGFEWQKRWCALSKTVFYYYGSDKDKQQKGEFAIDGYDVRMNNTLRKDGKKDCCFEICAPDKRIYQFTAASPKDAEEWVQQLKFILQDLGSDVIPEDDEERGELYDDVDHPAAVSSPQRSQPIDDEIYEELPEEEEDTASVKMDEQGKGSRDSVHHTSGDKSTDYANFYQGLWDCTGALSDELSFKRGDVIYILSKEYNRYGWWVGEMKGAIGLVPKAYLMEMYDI

Target: SKAP55 homologue (SKAP-HOM) (mouse (endogenous in Wehi 231)) (UniProt Q3UND0)
Assay: co-IP; SKAP-HOM immunoprecipitated from lysates of unstimulated Wehi 231 co/kd cells (1% Triton X-100, 10 mM Tris pH 7.5, 150 mM NaCl, 5 mM EDTA, 10 mM NaF), 3 h at 4°C; Western blots for SKAP-HOM, HPK1 and RIAM

binding: binds
B1: Rap1-GTP-interacting adaptor molecule (RIAM) (protein, UniProt Q8R5A3 1-670)
chain: MGESNEDIDQMFSTLLGEMDLLTQSLGVDTLPPPDPNPPREEFNYTVGFKDLNESLNALEDQDLDALMADLVADISEAEQRTIQAQKESSQNQDRFALLRASDGQGTASGGYGASAAAIDVSHHEEALPPPPVEPMLDLLPPPPPPPPPELLSKEEEEAKAKADKIKLALEKLKEAKVKKLVVKVHMDDSSTKSLMVDERQLARDVLDNLFEKTHCDCNVDWCLYEIYPELQIERVFEDHENVVEVLSDWTRDTENKVLFLEKEERYAVFKNPQNFYLDNKGKKENKETNEKMNAKNKEYLLEESFCGTSIIVPELEGALYLKEDGKKSWKRRYFLLRASGIYYVPKGKTKTSRDLACFIQFENVNIYYGIQCKMKYKAPTDHCFVLKHPQIQKESQYIKYLCCDDARTLSQWVMGIRIAKYGKTLYDNYQRAVARAGLASRWTNLGTVGTPMPAQPSTVSSGLKTGTSQPNGQMPQAIPSAGPPLQEAQTQIETTKDEKQGLGNHSPGATRENHRPKSSLPPPPPPVRRSSDTCGSPALPSKVKGPGTCTFPHPPENFLPPPPPPPPEEDNSGLLPPPPPPPYLEEPPDFVPPPPPPAAVEDSALPPPPPPPPCLSQEITKSSPLPPKKPLVPPKRQENQGLPGAPGNSEQDFMSDLMKALQKKRGNIP
